Experimental data reported in publication PMC10411793.
No constants are given. Whether binding was seen depends on the method and setting. In cells and extracts the contact can be indirect. Some results given as binding are weak or reduced against the parent protein; the word gives no strength.

Chains of the proteins cited; added tags and fusions are not shown. Residues count along the entry.
UniProt Q99IB8, residues 1977-2442: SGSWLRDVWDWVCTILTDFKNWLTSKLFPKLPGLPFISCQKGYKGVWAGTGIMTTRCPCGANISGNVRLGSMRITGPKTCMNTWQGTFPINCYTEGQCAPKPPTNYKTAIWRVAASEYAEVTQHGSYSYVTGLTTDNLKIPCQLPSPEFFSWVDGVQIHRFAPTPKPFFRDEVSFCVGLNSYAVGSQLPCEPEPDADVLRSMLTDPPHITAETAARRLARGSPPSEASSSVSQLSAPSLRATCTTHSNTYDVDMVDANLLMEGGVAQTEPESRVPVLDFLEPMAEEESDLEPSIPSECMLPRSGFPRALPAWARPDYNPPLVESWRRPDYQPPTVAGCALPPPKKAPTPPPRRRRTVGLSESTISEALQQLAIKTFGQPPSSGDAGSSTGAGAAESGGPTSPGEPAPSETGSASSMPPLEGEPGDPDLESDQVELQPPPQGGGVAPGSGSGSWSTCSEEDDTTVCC
UniProt P02649, residues 19-317: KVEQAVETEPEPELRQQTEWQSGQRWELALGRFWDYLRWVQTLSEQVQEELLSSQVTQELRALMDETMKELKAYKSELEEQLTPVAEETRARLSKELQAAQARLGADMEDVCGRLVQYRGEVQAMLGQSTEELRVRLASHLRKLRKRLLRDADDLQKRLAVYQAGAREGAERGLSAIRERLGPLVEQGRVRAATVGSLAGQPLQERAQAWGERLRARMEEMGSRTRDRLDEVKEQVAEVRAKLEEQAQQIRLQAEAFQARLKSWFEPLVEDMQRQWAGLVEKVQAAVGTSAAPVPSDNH

Molecular target: myc-tagged NS5A wildtype (hepatitis C virus, strain JFH1) (UniProt Q99IB8)
Assay: co-IP; HEK293T-miR122 cells co-transfected with HA-tagged ApoE and myc-tagged NS5A; lysed 30 h after transfection in 50 mM Tris-HCl pH 7.5, 150 mM NaCl, 1% Triton X-100, 1 mM EDTA, 10% glycerol; IP with rabbit anti-c-myc antibody and protein G beads at 4°C; Western blot with anti-HA antibody

“HA-tagged ApoE (from UniProt P02649 19-317)” was tested, and the binding was “binds”.
